Patent publication US20180305423A1 (OKLAHOMA MEDICAL RESEARCH FOUNDATION, published 2018)
These are yes or no findings as the source states them, for the method shown. For part of these data: Binding seen in cells or lysates may run through a third protein. Some results given as binding are weak or reduced against the parent protein; the word gives no strength.

The chains behind the UniProt entries cited, without tags or fusion partners. Residues count along the entry.
UniProt Q60751, residues 31-1373: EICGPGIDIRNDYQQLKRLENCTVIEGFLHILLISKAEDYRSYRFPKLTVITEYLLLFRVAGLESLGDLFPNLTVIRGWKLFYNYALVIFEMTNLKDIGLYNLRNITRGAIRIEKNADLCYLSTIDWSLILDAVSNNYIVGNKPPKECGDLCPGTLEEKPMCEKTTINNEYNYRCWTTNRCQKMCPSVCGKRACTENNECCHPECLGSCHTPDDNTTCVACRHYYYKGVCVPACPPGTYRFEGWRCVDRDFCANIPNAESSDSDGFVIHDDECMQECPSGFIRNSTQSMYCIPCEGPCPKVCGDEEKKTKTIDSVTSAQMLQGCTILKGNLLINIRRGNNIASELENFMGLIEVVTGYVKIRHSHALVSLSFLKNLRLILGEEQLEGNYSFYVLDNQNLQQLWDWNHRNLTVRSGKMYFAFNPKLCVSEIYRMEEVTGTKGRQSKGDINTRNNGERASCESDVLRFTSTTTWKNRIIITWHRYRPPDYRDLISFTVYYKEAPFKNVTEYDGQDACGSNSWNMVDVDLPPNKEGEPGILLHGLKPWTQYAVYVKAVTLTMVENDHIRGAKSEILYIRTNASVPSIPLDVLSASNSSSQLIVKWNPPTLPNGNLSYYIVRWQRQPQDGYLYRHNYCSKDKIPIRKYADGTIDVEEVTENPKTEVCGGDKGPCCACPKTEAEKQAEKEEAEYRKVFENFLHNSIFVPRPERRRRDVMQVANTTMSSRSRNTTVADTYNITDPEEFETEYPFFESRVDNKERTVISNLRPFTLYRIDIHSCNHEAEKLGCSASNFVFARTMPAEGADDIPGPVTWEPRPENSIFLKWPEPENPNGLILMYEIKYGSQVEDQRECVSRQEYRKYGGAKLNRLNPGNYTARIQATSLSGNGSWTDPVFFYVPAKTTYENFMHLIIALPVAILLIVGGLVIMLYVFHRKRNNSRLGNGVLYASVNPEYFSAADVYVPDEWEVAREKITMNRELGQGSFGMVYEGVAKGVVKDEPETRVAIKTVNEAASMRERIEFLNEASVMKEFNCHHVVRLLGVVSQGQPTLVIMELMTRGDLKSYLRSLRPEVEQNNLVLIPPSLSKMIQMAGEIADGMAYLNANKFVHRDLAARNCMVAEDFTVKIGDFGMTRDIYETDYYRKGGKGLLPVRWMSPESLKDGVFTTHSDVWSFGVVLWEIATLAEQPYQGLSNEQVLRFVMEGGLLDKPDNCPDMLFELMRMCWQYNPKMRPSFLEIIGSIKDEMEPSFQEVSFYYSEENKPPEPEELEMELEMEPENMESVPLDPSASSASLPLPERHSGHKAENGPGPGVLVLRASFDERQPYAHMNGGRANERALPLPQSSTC
UniProt P15208, residues 28-1372: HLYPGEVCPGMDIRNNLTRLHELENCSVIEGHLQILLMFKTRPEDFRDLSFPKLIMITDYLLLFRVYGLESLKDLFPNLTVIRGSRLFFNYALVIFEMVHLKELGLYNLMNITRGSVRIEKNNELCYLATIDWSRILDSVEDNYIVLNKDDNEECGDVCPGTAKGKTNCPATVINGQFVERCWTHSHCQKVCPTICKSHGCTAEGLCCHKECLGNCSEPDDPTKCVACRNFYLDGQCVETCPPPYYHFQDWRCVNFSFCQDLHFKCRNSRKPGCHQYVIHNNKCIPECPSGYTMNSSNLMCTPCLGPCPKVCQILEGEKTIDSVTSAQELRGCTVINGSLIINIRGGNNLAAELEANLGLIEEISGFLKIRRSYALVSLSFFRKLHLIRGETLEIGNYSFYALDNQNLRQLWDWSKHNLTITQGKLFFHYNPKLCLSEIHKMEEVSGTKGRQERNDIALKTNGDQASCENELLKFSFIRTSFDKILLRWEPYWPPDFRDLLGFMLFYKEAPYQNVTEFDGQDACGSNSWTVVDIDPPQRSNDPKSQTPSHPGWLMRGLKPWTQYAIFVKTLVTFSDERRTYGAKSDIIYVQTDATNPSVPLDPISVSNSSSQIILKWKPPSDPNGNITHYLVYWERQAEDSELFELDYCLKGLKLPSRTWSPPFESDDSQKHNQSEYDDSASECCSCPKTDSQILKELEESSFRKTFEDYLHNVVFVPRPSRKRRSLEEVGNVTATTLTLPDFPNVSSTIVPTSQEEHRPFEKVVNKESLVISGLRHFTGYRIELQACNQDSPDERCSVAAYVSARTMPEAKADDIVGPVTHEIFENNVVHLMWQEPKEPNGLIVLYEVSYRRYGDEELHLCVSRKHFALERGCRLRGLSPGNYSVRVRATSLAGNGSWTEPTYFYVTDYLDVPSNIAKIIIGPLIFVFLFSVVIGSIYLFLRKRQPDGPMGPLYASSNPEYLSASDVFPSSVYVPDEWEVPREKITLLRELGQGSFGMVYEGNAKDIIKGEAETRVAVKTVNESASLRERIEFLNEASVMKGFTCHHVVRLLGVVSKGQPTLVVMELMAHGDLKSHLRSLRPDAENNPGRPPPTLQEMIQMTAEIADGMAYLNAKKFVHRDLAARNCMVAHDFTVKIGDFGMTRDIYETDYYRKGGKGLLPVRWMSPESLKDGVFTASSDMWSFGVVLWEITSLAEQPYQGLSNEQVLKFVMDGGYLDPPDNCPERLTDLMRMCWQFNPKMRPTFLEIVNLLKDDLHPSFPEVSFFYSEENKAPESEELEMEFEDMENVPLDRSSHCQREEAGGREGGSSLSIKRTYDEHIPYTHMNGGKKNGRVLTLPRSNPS

Assays:
[1] = target: Insulin-like growth factor receptor (IGF-1R) (UniProt Q60751); assay: co-IP with anti-epsin 1 from 3T3-L1 pre-adipocytes with or without insulin, blot for IGF-1R
[2] = target: Insulin-like growth factor receptor (IGF-1R) (UniProt Q60751); assay: IP analysis in 3T3-L1 cells (FIG. 29)
Insulin receptor (IR) [3] = target: Insulin receptor (IR) (UniProt P15208); assay: IP analysis in 3T3-L1 cells (FIG. 29)
Insulin receptor (IR) [4] = target: Insulin receptor (IR) (UniProt P15208); assay: co-IP with anti-epsin 1 from 3T3-L1 pre-adipocytes with or without insulin, blot printed as 'IR1'
[5] = target: Insulin-like growth factor receptor (IGF-1R) (UniProt Q60751); assay: IP analysis in 3T3-L1 pre-adipocytes (FIG. 29)
Insulin receptor (IR) [6] = target: Insulin receptor (IR) (UniProt P15208); assay: IP analysis in 3T3-L1 pre-adipocytes (FIG. 29)

Measured: binding

B1: Epsin 1 (endogenous, MAEC and 3T3-L1 cells) (other, mouse, UniProt Q80VP1 1-575, looked up)
chain: MSTSSLRRQMKNIVHNYSEAEIKVREATSNDPWGPSSSLMSEIADLTYNVVAFSEIMSMIWKRLNDHGKNWRHVYKAMTLMEYLIKTGSERVSQQCKENMYAVQTLKDFQYVDRDGKDQGVNVREKAKQLVALLRDEDRLREERAHALKTKEKLAQTATASSAAVGSGPPPEAEQAWPQSSGEEELQLQLALAMSKEEADQPPSCGPEDDVQLQLALSLSREEHDKEERIRRGDDLRLQMAIEESKRETGGKEESSLMDLADVFTTPAPPQASDPWGGPASVPTAVPVAAAASDPWGGPAVPPAADPWGGAAPTPASGDPWRPAAPTGPSVDPWGGTPAPAAGEGPTPDPWGSSDGGAPVSGPPSSDPWAPAPAFSDPWGGSPAKPSSNGTAVGGFDTEPDEFSDFDRLRTALPTSGSSTGELELLAGEVPARSPGAFDMSGVGGSLAESVGSPPPAATPTPTPPTRKTPESFLGPNAALVDLDSLVSRPGPTPPGSKASNPFLPSGAPPTGPSVTNPFQPAPPATLTLNQLRLSPVPPVPGAPPTYISPLGGGPGLPPMMPPGPPAPNTNPFLL
notes: also called epsins
binds: all assays above
